Source: publication doi:10.1101/2021.01.05.423837
Results are given in words; binding and its absence hold for the method and conditions named. Binding seen in cells or lysates may run through a third protein. Here binding means that the protein was enriched with, or labelled near, the bait; the list need not be complete.

Protein sequences, listed by entry. Tags and fused reporters are not part of them.
UniProt P43694: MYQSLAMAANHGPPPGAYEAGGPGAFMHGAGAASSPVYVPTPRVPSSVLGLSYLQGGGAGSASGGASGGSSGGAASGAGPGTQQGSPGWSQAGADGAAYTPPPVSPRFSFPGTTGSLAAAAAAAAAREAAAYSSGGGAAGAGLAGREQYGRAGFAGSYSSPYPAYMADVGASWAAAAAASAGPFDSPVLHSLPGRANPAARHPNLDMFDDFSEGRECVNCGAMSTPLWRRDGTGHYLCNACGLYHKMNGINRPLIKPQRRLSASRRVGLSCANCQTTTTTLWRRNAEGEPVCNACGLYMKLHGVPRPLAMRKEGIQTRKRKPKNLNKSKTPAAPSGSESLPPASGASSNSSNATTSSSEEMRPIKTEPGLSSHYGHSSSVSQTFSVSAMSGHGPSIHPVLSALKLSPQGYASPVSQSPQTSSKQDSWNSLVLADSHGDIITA
UniProt Q92922: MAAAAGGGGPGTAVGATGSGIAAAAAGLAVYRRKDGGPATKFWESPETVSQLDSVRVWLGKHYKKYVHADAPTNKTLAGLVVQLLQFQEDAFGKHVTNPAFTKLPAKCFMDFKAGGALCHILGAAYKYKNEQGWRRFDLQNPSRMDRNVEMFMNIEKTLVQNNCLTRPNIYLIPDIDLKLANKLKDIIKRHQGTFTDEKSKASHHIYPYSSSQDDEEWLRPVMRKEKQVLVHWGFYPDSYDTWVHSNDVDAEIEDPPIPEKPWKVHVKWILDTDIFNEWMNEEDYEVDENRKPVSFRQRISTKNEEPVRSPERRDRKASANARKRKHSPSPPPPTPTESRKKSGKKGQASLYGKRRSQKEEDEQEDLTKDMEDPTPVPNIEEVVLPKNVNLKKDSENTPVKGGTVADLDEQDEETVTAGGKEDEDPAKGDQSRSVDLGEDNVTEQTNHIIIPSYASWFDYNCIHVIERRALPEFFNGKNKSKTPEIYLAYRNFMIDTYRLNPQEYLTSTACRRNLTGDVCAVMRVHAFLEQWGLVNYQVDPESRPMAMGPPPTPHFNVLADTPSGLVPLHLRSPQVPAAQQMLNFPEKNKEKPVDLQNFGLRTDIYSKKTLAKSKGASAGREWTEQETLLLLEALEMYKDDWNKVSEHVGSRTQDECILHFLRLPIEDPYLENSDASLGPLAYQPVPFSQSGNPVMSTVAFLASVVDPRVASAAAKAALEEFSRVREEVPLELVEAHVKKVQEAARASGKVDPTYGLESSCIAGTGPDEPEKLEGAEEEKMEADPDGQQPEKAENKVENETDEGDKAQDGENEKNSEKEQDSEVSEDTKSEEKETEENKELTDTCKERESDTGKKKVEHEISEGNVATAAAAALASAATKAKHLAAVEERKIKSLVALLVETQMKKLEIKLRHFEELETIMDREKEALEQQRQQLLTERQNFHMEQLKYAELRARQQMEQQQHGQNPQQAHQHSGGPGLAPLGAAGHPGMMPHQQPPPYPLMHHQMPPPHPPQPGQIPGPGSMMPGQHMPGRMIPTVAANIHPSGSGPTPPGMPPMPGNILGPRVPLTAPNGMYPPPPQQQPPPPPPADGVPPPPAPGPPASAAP

Target: GATA4 (endogenous, human iPSC-derived cardiac progenitors) (human (endogenous in hiPSC-derived cardiac progenitors)) (UniProt P43694)
Test: affinity purification with mass spectrometry

Row | binding | Molecule
1 | binds | SMARCC1 (endogenous, human iPSC-derived cardiac progenitors) (from UniProt Q92922 1-1105)
2 | binds | GLYR1 (endogenous, human iPSC-derived cardiac progenitors) (protein, UniProt Q49A26 1-553) MAAVSLRLGDLVWGKLGRYPPWPGKIVNPPKDLKKPRGKKCFFVKFFGTEDHAWIKVEQLKPYHAHKEEMIKINKGKRFQQAVDAVEEFLRRAKGKDQTSSHNSSDDKNRRNSSEERSRPNSGDEKRKLSLSEGKVKKNMGEGKKRVSSGSSERGSKSPLKRAQEQSPRKRGRPPKDEKDLTIPESSTVKGMMAGPMAAFKWQPTASEPVKDADPHFHHFLLSQTEKPAVCYQAITKKLKICEEETGSTSIQAADSTAVNGSITPTDKKIGFLGLGLMGSGIVSNLLKMGHTVTVWNRTAEKCDLFIQEGARLGRTPAEVVSTCDITFACVSDPKAAKDLVLGPSGVLQGIRPGKCYVDMSTVDADTVTELAQVIVSRGGRFLEAPVSGNQQLSNDGMLVILAAGDRGLYEDCSSCFQAMGKTSFFLGEVGNAAKMMLIVNMVQGSFMATIAEGLTLAQVTGQSQQTLLDILNQGQLASIFLDQKCQNILQGNFKPDFYLKYIQKDLRLAIALGDAVNHPTPMAAAANEVYKRAKALDQSDNDMSAVYRAYIH
